Reference: patent EP2354120A1, “Synthesis of acyloxyalkyl carbamate prodrugs and intermediates thereof” (XenoPort, Inc., priority 2003, dated 2005)
At least one structure is not confirmed: it was looked up by name or label, or the drawing left a doubt.

Tested on: pancreatin
Assay type: in vitro ADME, porcine
Conditions: 1 % (w/v) pancreatin, 5 µM, pH 7.5, 37 °C, after 60 min
Description: The reaction was stopped by addition of 2 volumes of methanol.

## CC(C)C(=O)O[C@@H](OC(=O)NC[C@H](CC(=O)O)c1ccc(Cl)cc1)C(C)C [(92), Sodium 4-{[(1S)-Isobutanoyloxyisobutoxy]carbonylamino}-(3R)-(4-chlorophenyl) -butanoate]
  % of Baclofen Released: 7%
